Measurements taken from publication PMC5712633.
These are yes or no findings as the source states them, for the method shown. In cells and extracts the contact can be indirect. A result given as binding can be weak or reduced; the word gives no strength.

Amino acid sequences for entries named in this document (tags omitted). A change or cut given only in a name is not applied to a line headed by its entry. Residues count along the entry.
UniProt Q3KR86: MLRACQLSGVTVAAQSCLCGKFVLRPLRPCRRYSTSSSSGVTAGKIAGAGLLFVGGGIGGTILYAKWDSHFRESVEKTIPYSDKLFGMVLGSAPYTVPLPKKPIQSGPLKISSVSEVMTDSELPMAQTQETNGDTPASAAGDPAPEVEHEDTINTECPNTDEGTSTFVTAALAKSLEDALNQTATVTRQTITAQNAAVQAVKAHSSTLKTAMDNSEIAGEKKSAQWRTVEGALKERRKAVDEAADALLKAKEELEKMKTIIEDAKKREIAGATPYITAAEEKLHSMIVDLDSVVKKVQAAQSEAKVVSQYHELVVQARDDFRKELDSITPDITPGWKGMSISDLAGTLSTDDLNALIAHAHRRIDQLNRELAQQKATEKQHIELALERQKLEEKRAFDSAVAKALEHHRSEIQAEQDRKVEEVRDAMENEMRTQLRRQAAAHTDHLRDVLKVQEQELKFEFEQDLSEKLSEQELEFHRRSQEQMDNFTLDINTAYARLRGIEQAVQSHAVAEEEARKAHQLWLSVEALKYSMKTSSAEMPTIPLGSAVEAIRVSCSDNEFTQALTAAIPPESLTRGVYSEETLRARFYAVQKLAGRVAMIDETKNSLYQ
UniProt Q2TA68, residues 88-960: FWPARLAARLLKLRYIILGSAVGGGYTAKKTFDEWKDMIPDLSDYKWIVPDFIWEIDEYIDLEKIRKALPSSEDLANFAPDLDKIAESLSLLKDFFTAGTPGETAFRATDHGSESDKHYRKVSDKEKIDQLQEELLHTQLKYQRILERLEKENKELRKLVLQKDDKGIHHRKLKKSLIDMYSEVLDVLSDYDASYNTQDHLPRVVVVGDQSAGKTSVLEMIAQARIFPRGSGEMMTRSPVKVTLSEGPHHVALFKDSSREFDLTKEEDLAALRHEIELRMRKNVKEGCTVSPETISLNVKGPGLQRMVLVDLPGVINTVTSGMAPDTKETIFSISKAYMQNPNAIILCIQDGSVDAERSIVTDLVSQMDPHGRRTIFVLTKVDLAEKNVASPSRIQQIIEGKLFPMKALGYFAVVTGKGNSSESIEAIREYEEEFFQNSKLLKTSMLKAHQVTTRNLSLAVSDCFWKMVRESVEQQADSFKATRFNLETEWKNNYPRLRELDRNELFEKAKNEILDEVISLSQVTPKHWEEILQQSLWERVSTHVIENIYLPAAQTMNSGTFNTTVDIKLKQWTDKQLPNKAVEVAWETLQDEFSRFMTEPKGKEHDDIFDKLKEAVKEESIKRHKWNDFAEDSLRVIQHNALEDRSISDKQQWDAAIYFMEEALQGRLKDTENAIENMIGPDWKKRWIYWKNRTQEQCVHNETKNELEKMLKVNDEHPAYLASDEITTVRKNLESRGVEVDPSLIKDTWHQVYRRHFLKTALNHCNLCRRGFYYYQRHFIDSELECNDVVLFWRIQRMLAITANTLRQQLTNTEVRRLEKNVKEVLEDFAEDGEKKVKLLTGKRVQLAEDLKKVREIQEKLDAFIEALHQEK

Biological target: MIC60 (UniProt Q3KR86)
Assay: co-IP; cell extracts (1 mg) of RNT cells (control, UnAG 1 uM, I/Reo, UnAG+I/Reo) immunoprecipitated with anti-MIC60 and blotted for Opa1, or immunoprecipitated with anti-Opa1 and blotted for MIC60; protein-A-Sepharose beads; eluted by boiling in 1% SDS

- binding: binds
Substance: optic atrophy 1 (Opa1) protein (from UniProt Q2TA68 88-960)
